Laboratory results published in PMC4024641.
Results are given in words; binding and its absence hold for the method and conditions named. Binding seen in cells or lysates may run through a third protein. These calls come from enrichment with a bait or labelling near it, and not all partners need be listed. For part of these data: A no says only that the protein was not detected with the bait. Where a sequence is shown, tags or fusion partners need not be part of it.

What was measured:
Experiment in all cases: affinity purification with mass spectrometry; 3×FLAG- or 13×myc-tagged bait purified from S. pombe cell extract on α-FLAG (M2) or α-myc (9E10) antibody cross-linked to Protein G Dynabeads, 4°C for 3 h, IP buffer (20 mM HEPES pH 7.5, 100 mM NaCl, 5 mM MgCl2, 1 mM EDTA, 10% glycerol, 0.25% Triton X-100, 0.5 mM DTT); LC-MS/MS; Red1-3×FLAG also from iss10Δ, rmn1Δ and Mtl1 knockdown cells
Ars2-3×FLAG (S. pombe) = molecular target: T1, Ars2-3×FLAG (S. pombe) (UniProt O94326)
T1 sequence: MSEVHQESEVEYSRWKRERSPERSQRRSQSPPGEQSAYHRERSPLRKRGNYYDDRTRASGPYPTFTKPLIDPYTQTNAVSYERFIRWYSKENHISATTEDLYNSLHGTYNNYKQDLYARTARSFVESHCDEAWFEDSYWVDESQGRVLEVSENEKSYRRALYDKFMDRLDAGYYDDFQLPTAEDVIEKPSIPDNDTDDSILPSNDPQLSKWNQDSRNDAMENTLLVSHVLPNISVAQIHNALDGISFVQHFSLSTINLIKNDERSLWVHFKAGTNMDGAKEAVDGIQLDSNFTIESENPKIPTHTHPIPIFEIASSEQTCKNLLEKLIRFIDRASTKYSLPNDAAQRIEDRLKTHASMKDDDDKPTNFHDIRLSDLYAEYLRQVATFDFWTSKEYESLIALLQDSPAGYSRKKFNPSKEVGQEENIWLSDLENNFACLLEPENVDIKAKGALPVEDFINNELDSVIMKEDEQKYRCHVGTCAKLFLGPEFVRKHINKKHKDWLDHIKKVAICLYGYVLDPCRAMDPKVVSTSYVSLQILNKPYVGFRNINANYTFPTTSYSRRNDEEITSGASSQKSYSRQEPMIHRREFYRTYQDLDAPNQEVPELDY

Mtl1-3×FLAG (S. pombe) = molecular target: T2, Mtl1-3×FLAG (S. pombe) (UniProt O13799)
T2 sequence: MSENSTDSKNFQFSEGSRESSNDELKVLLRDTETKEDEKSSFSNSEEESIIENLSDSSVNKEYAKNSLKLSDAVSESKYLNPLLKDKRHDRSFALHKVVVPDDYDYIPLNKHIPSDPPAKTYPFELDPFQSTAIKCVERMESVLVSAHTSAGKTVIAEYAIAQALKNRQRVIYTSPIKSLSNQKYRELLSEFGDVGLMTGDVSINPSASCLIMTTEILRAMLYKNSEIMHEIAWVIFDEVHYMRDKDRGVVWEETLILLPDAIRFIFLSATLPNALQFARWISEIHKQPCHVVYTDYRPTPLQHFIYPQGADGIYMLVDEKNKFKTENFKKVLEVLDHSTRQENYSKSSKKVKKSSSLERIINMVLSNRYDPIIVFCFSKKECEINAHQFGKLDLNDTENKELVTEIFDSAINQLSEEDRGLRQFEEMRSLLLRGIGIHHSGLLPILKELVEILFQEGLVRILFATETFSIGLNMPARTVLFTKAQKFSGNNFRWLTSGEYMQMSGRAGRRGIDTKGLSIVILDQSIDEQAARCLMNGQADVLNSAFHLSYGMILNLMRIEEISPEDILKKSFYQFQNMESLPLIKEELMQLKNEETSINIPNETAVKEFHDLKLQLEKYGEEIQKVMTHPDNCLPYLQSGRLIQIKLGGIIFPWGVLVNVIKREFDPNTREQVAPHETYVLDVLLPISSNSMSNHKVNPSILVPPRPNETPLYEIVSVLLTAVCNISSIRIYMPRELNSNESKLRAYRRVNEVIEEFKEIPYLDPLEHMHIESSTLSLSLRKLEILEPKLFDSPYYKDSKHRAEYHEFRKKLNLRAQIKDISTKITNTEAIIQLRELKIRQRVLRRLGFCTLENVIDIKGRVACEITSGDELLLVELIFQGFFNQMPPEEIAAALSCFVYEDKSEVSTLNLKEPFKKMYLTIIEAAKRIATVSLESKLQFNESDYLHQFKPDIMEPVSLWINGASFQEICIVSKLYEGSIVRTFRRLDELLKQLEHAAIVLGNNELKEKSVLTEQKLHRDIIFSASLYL

Red5-3×FLAG (S. pombe) = molecular target: T3, Red5-3×FLAG (S. pombe) (UniProt O74823)
T3 sequence: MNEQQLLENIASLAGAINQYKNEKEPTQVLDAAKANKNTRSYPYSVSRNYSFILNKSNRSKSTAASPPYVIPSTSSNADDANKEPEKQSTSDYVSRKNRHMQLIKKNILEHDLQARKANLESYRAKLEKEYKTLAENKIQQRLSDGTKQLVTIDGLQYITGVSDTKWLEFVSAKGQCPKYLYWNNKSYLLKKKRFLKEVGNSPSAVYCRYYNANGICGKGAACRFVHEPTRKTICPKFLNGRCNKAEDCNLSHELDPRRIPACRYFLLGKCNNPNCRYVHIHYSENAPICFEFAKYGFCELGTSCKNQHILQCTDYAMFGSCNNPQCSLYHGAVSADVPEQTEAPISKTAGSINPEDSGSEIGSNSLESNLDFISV

Binder | binding (Ars2-3×FLAG (S. pombe)) | binding (Mtl1-3×FLAG (S. pombe)) | binding (Red5-3×FLAG (S. pombe))
Pab2 (protein, UniProt O14327 1-166) MSDQDALDTQEKELLEMKERVAEMEAEAAKLRAMQEQLDNETEALRNDKESIDAQSVYVGNVDYSVTPEELQSHFASCGSVNRVTILCDKFTGHPKGFAYIEFSEPSLVPNALLLNGSMLHERPLKVTPKRTNVPGMSRGRGRGRGRGRGRGRGGYRGRARGFAPY | binds | binds | binds
Pla1 (protein, UniProt Q10295 1-566) MTTKQWGITPPISTAPATEQENALNTALINELKNQNLFESPAESEKRVKVLDELQQITTEFVKKVSLAKHMNEKMANEAGGKIFTYGSYRLGVYGPGSDIDTLVVVPKHVSRDNFFQDLEPMLREREEVTDLAAVPDAYVPIIKFKFLGISIDLIFARLSVPRVPRDLELSDNNLLKGVEERCVLSLNGTRVTDQILQLVPNRAVFKHALRAIKFWAQRRAIYANVVGFPGGVAWAMMVARICQLYPNAVSSVIVAKFFRILHQWNWPQPILLKPIEDGPLQVRIWNPKLYPSDKAHRMPIITPAYPSMCATHNITLSTQTIILREMVRAGEIADQIMVKALPWSALFQKHDFFHRYKHYLTITAAAKTAEAQLKWAGLVESKLRHLVTRLELVDAIALAHPFNKGFDKVYNCSSEEEAQQVASGVTLEVAYESTDHEKLANDTVNEEKADNTESKADGSENGEKQIFPVYTTTCYIGLELEKKKGHPIKRLDISWPTQEFYELCKKWDKYDDTLMNVFIKNTKNTALPDEVFEPGEERPKATKKRSTADTAHSTEQLKRQKVSTA | binds | binds | no binding
